According to article PMC12035898:
Results are given in words; binding and its absence hold for the method and conditions named. In cells and extracts the contact can be indirect. Some results given as binding are weak or reduced against the parent protein; the word gives no strength.

Protein sequences, listed by entry. Tags and fused reporters are not part of them.
UniProt P40763: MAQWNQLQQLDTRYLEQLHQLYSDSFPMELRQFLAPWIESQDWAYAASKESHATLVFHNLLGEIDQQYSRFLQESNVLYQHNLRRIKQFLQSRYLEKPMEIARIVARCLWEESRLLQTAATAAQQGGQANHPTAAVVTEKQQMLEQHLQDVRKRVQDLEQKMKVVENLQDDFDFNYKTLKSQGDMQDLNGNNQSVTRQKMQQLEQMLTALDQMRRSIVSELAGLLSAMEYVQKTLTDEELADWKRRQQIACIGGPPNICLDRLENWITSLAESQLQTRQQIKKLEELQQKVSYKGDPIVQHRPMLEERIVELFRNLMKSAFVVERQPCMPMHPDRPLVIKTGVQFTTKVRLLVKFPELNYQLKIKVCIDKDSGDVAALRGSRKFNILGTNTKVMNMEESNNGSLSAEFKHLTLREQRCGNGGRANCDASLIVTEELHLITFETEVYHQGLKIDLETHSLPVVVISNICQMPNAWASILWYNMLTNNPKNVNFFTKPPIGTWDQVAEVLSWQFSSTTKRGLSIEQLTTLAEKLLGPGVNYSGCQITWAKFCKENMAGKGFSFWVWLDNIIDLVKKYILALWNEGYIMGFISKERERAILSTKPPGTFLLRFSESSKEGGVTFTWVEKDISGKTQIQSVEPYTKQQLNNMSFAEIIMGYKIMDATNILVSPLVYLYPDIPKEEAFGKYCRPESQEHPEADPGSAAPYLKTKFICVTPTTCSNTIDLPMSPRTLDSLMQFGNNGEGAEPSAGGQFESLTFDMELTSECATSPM

T1: Dual-specificity tyrosine-regulated kinase 4 (DYRK4), overexpressed in Huh7 cells (UniProt Q9NR20)
T1 sequence: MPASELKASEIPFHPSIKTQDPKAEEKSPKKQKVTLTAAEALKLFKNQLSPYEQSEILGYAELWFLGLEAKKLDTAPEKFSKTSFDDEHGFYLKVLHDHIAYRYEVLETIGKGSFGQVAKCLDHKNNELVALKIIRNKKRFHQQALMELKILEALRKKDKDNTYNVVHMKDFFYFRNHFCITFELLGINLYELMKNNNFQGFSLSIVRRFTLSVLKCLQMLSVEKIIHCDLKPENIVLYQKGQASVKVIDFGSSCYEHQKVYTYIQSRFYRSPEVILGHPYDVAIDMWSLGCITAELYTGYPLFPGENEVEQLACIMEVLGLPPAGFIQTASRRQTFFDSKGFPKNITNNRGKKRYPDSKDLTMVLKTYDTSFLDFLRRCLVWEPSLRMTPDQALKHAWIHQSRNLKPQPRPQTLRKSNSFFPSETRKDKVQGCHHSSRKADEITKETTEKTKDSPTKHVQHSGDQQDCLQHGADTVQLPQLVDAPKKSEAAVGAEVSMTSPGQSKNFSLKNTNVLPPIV

T2: DYRK4 in TAK1-/- HCCLM3 cells (UniProt Q9NR20)
T2 sequence: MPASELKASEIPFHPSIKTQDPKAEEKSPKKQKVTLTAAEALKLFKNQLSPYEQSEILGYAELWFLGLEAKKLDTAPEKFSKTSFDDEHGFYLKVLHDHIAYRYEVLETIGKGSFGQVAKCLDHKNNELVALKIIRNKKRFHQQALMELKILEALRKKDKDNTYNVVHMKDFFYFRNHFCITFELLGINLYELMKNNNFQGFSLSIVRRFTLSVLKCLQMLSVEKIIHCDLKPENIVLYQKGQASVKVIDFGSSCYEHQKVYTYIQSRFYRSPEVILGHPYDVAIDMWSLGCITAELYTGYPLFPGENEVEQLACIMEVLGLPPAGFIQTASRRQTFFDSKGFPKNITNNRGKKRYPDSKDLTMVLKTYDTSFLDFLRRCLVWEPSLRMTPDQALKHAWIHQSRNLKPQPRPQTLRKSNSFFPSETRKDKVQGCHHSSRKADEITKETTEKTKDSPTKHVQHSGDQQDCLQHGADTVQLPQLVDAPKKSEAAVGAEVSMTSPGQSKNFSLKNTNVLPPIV


Columns and labels:
[1] = target: T1, Dual-specificity tyrosine-regulated kinase 4 (DYRK4), overexpressed in Huh7 cells; assay: co-IP; DYRK4 and STAT3 in Huh7 cells; Flag-beads at 4 °C for 6 h (Fig. 6B)
[2] = target: T1, Dual-specificity tyrosine-regulated kinase 4 (DYRK4), overexpressed in Huh7 cells; assay: co-IP; Huh7 cells with the pHBV1.3 plasmid, overexpressed proteins; lysate incubated with Flag-beads at 4 °C for 6 h, washed five times (Fig. 4A, 4G)
[3] = target: T1, Dual-specificity tyrosine-regulated kinase 4 (DYRK4), overexpressed in Huh7 cells; assay: co-IP; DYRK4 overexpressed in Huh7 cells with the pHBV1.3 plasmid for 48 h; endogenous TAK1-TABs; Flag-beads at 4 °C for 6 h (Fig. 4B)
[4] = target: T2, DYRK4 in TAK1-/- HCCLM3 cells; assay: co-IP; TAK1-/- HCCLM3 cell line (CRISPR-Cas9) transfected with the pHBV1.3 plasmid; Flag-beads at 4 °C for 6 h (Fig. 4D)

| Molecule | binding [2] | other results |
| --- | --- | --- |
| Signal transducers and activators of transcription 3 (STAT3) (from UniProt P40763 1-770) |  | binding [1]: binds |
| TGF-beta activated kinase 1 (MAP3K7) binding protein 1 (TAB1), overexpressed in Huh7 cells (protein, UniProt Q15750 1-504) MAAQRRSLLQSEQQPSWTDDLPLCHLSGVGSASNRSYSADGKGTESHPPEDSWLKFRSENNCFLYGVFNGYDGNRVTNFVAQRLSAELLLGQLNAEHAEADVRRVLLQAFDVVERSFLESIDDALAEKASLQSQLPEGVPQHQLPPQYQKILERLKTLEREISGGAMAVVAVLLNNKLYVANVGTNRALLCKSTVDGLQVTQLNVDHTTENEDELFRLSQLGLDAGKIKQVGIICGQESTRRIGDYKVKYGYTDIDLLSAAKSKPIIAEPEIHGAQPLDGVTGFLVLMSEGLYKALEAAHGPGQANQEIAAMIDTEFAKQTSLDAVAQAVVDRVKRIHSDTFASGGERARFCPRHEDMTLLVRNFGYPLGEMSQPTPSPAPAAGGRVYPVSVPYSSAQSTSKTSVTLSLVMPSQGQMVNGAHSASTLDEATPTLTNQSPTLTLQSTNTHTQSSSSSSDGGLFRSRPAHSLPPGEDGRVEPYVDFAEFYRLWSVDHGEQSVVTAP | binds |  |
| TAB1 N-domain (1-363 aa), N-terminal pseudophosphatase domain (domain or fragment, UniProt Q15750 1-363) MAAQRRSLLQSEQQPSWTDDLPLCHLSGVGSASNRSYSADGKGTESHPPEDSWLKFRSENNCFLYGVFNGYDGNRVTNFVAQRLSAELLLGQLNAEHAEADVRRVLLQAFDVVERSFLESIDDALAEKASLQSQLPEGVPQHQLPPQYQKILERLKTLEREISGGAMAVVAVLLNNKLYVANVGTNRALLCKSTVDGLQVTQLNVDHTTENEDELFRLSQLGLDAGKIKQVGIICGQESTRRIGDYKVKYGYTDIDLLSAAKSKPIIAEPEIHGAQPLDGVTGFLVLMSEGLYKALEAAHGPGQANQEIAAMIDTEFAKQTSLDAVAQAVVDRVKRIHSDTFASGGERARFCPRHEDMTLLVR | binds |  |
| TGF-beta-activated kinase 1/MAP3K7 binding protein 2 (TAB2), overexpressed in Huh7 cells (protein, UniProt Q9NYJ8 1-693) MAQGSHQIDFQVLHDLRQKFPEVPEVVVSRCMLQNNNNLDACCAVLSQESTRYLYGEGDLNFSDDSGISGLRNHMTSLNLDLQSQNIYHHGREGSRMNGSRTLTHSISDGQLQGGQSNSELFQQEPQTAPAQVPQGFNVFGMSSSSGASNSAPHLGFHLGSKGTSSLSQQTPRFNPIMVTLAPNIQTGRNTPTSLHIHGVPPPVLNSPQGNSIYIRPYITTPGGTTRQTQQHSGWVSQFNPMNPQQVYQPSQPGPWTTCPASNPLSHTSSQQPNQQGHQTSHVYMPISSPTTSQPPTIHSSGSSQSSAHSQYNIQNISTGPRKNQIEIKLEPPQRNNSSKLRSSGPRTSSTSSSVNSQTLNRNQPTVYIAASPPNTDELMSRSQPKVYISANAATGDEQVMRNQPTLFISTNSGASAASRNMSGQVSMGPAFIHHHPPKSRAIGNNSATSPRVVVTQPNTKYTFKITVSPNKPPAVSPGVVSPTFELTNLLNHPDHYVETENIQHLTDPTLAHVDRISETRKLSMGSDDAAYTQALLVHQKARMERLQRELEIQKKKLDKLKSEVNEMENNLTRRRLKRSNSISQIPSLEEMQQLRSCNRQLQIDIDCLTKEIDLFQARGPHFNPSAIHNFYDNIGFVGPVPPKPKDQRSIIKTPKTQDTEDDEGAQWNCTACTFLNHPALIRCEQCEMPRHF | binds |  |
| TGF-beta-activated kinase 1/MAP3K7 binding protein 3 (TAB3), overexpressed in Huh7 cells (protein, UniProt Q8N5C8 1-712) MAQSSPQLDIQVLHDLRQRFPEIPEGVVSQCMLQNNNNLEACCRALSQESSKYLYMEYHSPDDNRMNRNRLLHINLGIHSPSSYHPGDGAQLNGGRTLVHSSSDGHIDPQHAAGKQLICLVQEPHSAPAVVAATPNYNPFFMNEQNRSAATPPSQPPQQPSSMQTGMNPSAMQGPSPPPPPPSYMHIPRYSTNPITVTVSQNLPSGQTVPRALQILPQIPSNLYGSPGSIYIRQTSQSSSGRQTPQSTPWQSSPQGPVPHYSQRPLPVYPHQQNYQPSQYSPKQQQIPQSAYHSPPPSQCPSPFSSPQHQVQPSQLGHIFMPPSPSTTPPHPYQQGPPSYQKQGSHSVAYLPYTASSLSKGSMKKIEITVEPSQRPGTAINRSPSPISNQPSPRNQHSLYTATTPPSSSPSRGISSQPKPPFSVNPVYITYTQPTGPSCTPSPSPRVIPNPTTVFKITVGRATTENLLNLVDQEERSAAPEPIQPISVIPGSGGEKGSHKYQRSSSSGSDDYAYTQALLLHQRARMERLAKQLKLEKEELERLKSEVNGMEHDLMQRRLRRVSCTTAIPTPEEMTRLRSMNRQLQINVDCTLKEVDLLQSRGNFDPKAMNNFYDNIEPGPVVPPKPSKKDSSDPCTIERKARRISVTSKVQADIHDTQAAAADEHRTGSTQSPRTQPRDEDYEGAPWNCDSCTFLNHPALNRCEQCEMPRYT | binds |  |
| TGF-beta activated kinase 1 (TAK1), overexpressed in Huh7 cells (enzyme, UniProt O43318 1-606) MSTASAASSSSSSSAGEMIEAPSQVLNFEEIDYKEIEVEEVVGRGAFGVVCKAKWRAKDVAIKQIESESERKAFIVELRQLSRVNHPNIVKLYGACLNPVCLVMEYAEGGSLYNVLHGAEPLPYYTAAHAMSWCLQCSQGVAYLHSMQPKALIHRDLKPPNLLLVAGGTVLKICDFGTACDIQTHMTNNKGSAAWMAPEVFEGSNYSEKCDVFSWGIILWEVITRRKPFDEIGGPAFRIMWAVHNGTRPPLIKNLPKPIESLMTRCWSKDPSQRPSMEEIVKIMTHLMRYFPGADEPLQYPCQYSDEGQSNSATSTGSFMDIASTNTSNKSDTNMEQVPATNDTIKRLESKLLKNQAKQQSESGRLSLGASRGSSVESLPPTSEGKRMSADMSEIEARIAATTAYSKPKRGHRKTASFGNILDVPEIVISGNGQPRRRSIQDLTVTGTEPGQVSSRSSSPSVRMITTSGPTSEKPTRSHPWTPDDSTDTNGSDNSIPMAYLTLDHQLQPLAPCPNSKESMAVFEQHCKMAQEYMKVQTEIALLLQRKQELVAELDQDEKDQQNTSRLVQEHKKLLDENKSLSTYYQQCKKQLEVIRSQQQKRQGTS | binds |  |
| endogenous TGF-beta activated kinase 1 (TAK1) (enzyme, UniProt O43318 1-606) MSTASAASSSSSSSAGEMIEAPSQVLNFEEIDYKEIEVEEVVGRGAFGVVCKAKWRAKDVAIKQIESESERKAFIVELRQLSRVNHPNIVKLYGACLNPVCLVMEYAEGGSLYNVLHGAEPLPYYTAAHAMSWCLQCSQGVAYLHSMQPKALIHRDLKPPNLLLVAGGTVLKICDFGTACDIQTHMTNNKGSAAWMAPEVFEGSNYSEKCDVFSWGIILWEVITRRKPFDEIGGPAFRIMWAVHNGTRPPLIKNLPKPIESLMTRCWSKDPSQRPSMEEIVKIMTHLMRYFPGADEPLQYPCQYSDEGQSNSATSTGSFMDIASTNTSNKSDTNMEQVPATNDTIKRLESKLLKNQAKQQSESGRLSLGASRGSSVESLPPTSEGKRMSADMSEIEARIAATTAYSKPKRGHRKTASFGNILDVPEIVISGNGQPRRRSIQDLTVTGTEPGQVSSRSSSPSVRMITTSGPTSEKPTRSHPWTPDDSTDTNGSDNSIPMAYLTLDHQLQPLAPCPNSKESMAVFEQHCKMAQEYMKVQTEIALLLQRKQELVAELDQDEKDQQNTSRLVQEHKKLLDENKSLSTYYQQCKKQLEVIRSQQQKRQGTS |  | binding [3]: binds |
| TAB1 in TAK1-/- HCCLM3 cells (protein, UniProt Q15750 1-504) MAAQRRSLLQSEQQPSWTDDLPLCHLSGVGSASNRSYSADGKGTESHPPEDSWLKFRSENNCFLYGVFNGYDGNRVTNFVAQRLSAELLLGQLNAEHAEADVRRVLLQAFDVVERSFLESIDDALAEKASLQSQLPEGVPQHQLPPQYQKILERLKTLEREISGGAMAVVAVLLNNKLYVANVGTNRALLCKSTVDGLQVTQLNVDHTTENEDELFRLSQLGLDAGKIKQVGIICGQESTRRIGDYKVKYGYTDIDLLSAAKSKPIIAEPEIHGAQPLDGVTGFLVLMSEGLYKALEAAHGPGQANQEIAAMIDTEFAKQTSLDAVAQAVVDRVKRIHSDTFASGGERARFCPRHEDMTLLVRNFGYPLGEMSQPTPSPAPAAGGRVYPVSVPYSSAQSTSKTSVTLSLVMPSQGQMVNGAHSASTLDEATPTLTNQSPTLTLQSTNTHTQSSSSSSDGGLFRSRPAHSLPPGEDGRVEPYVDFAEFYRLWSVDHGEQSVVTAP |  | binding [4]: binds |
